In patent US7560564B2, “Heterocyclic diamide invertebrate pest control agents” (E.I. du Pont de Nemours and Company, priority 2001, dated 2009):
Some results were stated once for a whole list of compounds, not compound by compound.

Experiments:
[1] = system: diamondback moth (Plutella xylostella); assay: Test A: control of diamondback moth on radish plant, foliar spray; format: in vivo; conditions: sprayed at 250 ppm, held 6 days, visually assessed, ratings of 0-1
[2] = system: green peach aphid (Myzus persicae); assay: Test E: control of green peach aphid on radish plant, contact and/or systemic; format: in vivo; conditions: sprayed at 250 ppm, visually assessed

| Structure (SMILES) | feeding damage (very good to excellent levels of plant protection) [1] [%] | mortality [2] |
| --- | --- | --- |
| Cc1csc(C(=O)NC(C)(C)C)c1NC(=O)c1ccc(C(F)(F)F)nc1C [Compound 20] | ≤ 10 |  |
| Cc1ccc(C(=O)Nc2c(C(=O)N3CCCCCC3)cnn2-c2ccccc2)cc1 [Compound C48] |  | at least 80% |
